# From patent US20060172993A1 (priority 2002, published 2006)
# At least one structure is not confirmed: it was looked up by name or label, or the drawing left a doubt.
# Columns and labels:
# [1] = test system: Patients diagnosed with Alzheimer's Disease; experiment: ADAS-cog/11 cognitive subscale, 5-month placebo-controlled trial; type: in vivo, human; settings: Month 5
# Source text: (§1) Subjects in the Placebo group received 21 weeks (5 months) of placebo medication.
# The ADAS consists of two parts—a cognitive subscale and a behavioral subscale. The behavioral subscale was not be used in this study. The cognitive subscale, the ADAS--cog-11, consisted of Word Recall and Word Recognition memory tests, Object and Finger Naming, Commands, Constructional Praxis, Ideational Praxis, Orientation, Remembering Test Instructions, Spoken language Ability, Comprehension of Spoken language and Word Finding Difficulty was the primary variable in this study.
# The ADAS was performed at visits 1, 2, 3, 4 and 5 (screening, baseline, week 4, week 13 and month 5 or upon early discontinuation of trial medication intake). For word recall and word recognition two parallel wordlists, list A and list B were employed. List A was used at visits 1 and 3, List B at visits 2, 4, and 5 or upon early discontinuation of trial medication intake. For practical reasons the words for word recognition was presented only once. The total score of the 11 cognitive items on the original ADAS cognitive subscale (ADAS-cog/11, Range: 0-70) was recorded.
# Between treatment groups comparisons (with particular focus on differences from placebo) were done at each scheduled time interval and for each endpoint imputation scheme. These comparisons will be based on the change from baseline scores for efficacy parameters with baseline (e.g., ADAS-cog/11) and the original scored for efficacy parameters without baseline e.g., CIBIC-plus).
# For continuous data, a two-way analysis of variance (ANOVA) model with treatment and investigator as factors were used to compare the treatment groups for the change from baseline data. The interaction between treatment and investigator was examined. The impact of the baseline score on change from baseline was evaluated. […] If the parametric methods were deemed inappropriate (normality assumption violated), nonparametric methods such as two-way ANOVA on ranked data, Van Elteren test, controlling for investigator, was used. Following ANOVA, Fisher's LSD procedure was used for pairwise comparisons between each galanthamine group and the placebo group. A linear contrast on the main effect for treatment was used to test the dose response relationship.
# [2] = test system: Patients diagnosed with Alzheimer's Disease; experiment: CIBIC-plus (Clinician's Interview Based Impression of Change Plus Family Input); type: in vivo, human; settings: 16 or 24 mg/day; Month 5
# Method: as §1
# The CIBIC-plus score was a second primary variable. An independent, experienced and properly trained clinician provided a global impression of the subject's deterioration or improvement over the course of the trial, based on separate interviews with the subject and caregivers. If helpful, the CIBIC rater audiotaped or videotaped the baseline interview for future reference.
# The CIBIC-plus was performed at visit 2, 3, 4, and 5 (baseline, week 4, week 13, and month 5 or upon early discontinuation of trial medication intake). Only a trained CIBIC rater performed the test.
# For ordinal categorical variables such as the CIBIC-plus score, the Van Elteren test controlling for investigator was used for the between group comparison. For the nominal data (e.g., events rates), the Cochran-Mantel-Haenszel test for general association controlling for investigator was used. A linear contrast on the proportion of patients that stay the same or improve was used to test for increasing response with increasing dose.
# [3] = test system: Patients diagnosed with Alzheimer's Disease; experiment: ADCS/ADL scale (Activities of Daily Living); type: in vivo, human; settings: 16 or 24 mg/day for 5 months
# Source text: as §1
# The ADCS/ADL scale is a 23-item informant-based assessment scale measuring widely applicable daily activities appropriate for patients in the mild to moderate category of Alzheimer's Disease. The 23 items were selected for measurement from the larger set of 45 items studied by Galasko et al (Alzheimer Disease and Associated Disorders, Vol 11, Suppl. 2, 1997). These individual items were scored from 0-3 to […], depending on the question, with a possible total score of 78. A higher score indicated a higher functioning patient.
# The items and scoring were as follows: • Eating (0-3) • Walking (0-3) • Toileting (0-3) • Bathing (0-3) • Grooming (0-3) • Dressing • selection of clothes (0-3) • physical performance (0-4) • Telephone (0-5) • Television (0-3) • Conversation (0-3) • Dishes (0-3) • Managing personal belongings (0-3) • Obtaining beverages (0-3) • Making a meal or snack (0-4) • Disposal of garbage (0-3) • Travel outside home (0-4) • Shopping (0-4) • Keeping appointments (0-3) • Ability to be left alone (0-3) • Current events (0-3) • Reading (0-2) • Writing (0-3) • Hobbies (0-3) • Household appliances (0-4) […]
# nicotinic receptor sites = settings: cited from earlier work
# [4] = test system: muscarinic receptor sites; settings: cited from earlier work
smiles,measurement,setting,value
"COc1ccc2c3c1O[C@H]1C[C@@H](O)C=C[C@@]31CCN(C)C2 [GAL, galantamine]",ADAS-cog/11 difference from placebo,[1]; 8 mg/day,significantly different from placebo for the observed case but not for the LOCF
same,"ADAS-cog/11, 24 mg/day compared with 16 mg/day",[1]; 24 mg/day,did not appear to be significantly more effective than 16 mg/day
same,ADAS-cog/11 responders with no change or improved scores compared with placebo or 8 mg/day,[1]; 16 and 24 mg/day,significantly more patients
same,ADAS-cog/11 treatment effect compared with placebo,[1]; 16 and 24 mg/day,statistically significant treatment effect
same,CIBIC-plus percent of patients with improved or unchanged scores compared with placebo or 8 mg/day,[2],significantly greater
same,ADL total score compared with placebo or 8 mg/day,[3],statistically more effective in maintaining the ADL total score at baseline levels
same,Activity at nicotinic receptor sites,nicotinic receptor sites,active at nicotinic receptor sites
same,Activity at muscarinic receptor sites,[4],not on muscarinic receptor sites
